Values of other authors in US9855226B2 (Relmada Therapeutics, Inc., priority 2012, dated 2018).

Test system: NE reuptake
Conditions: cited from earlier work

Question: For CCC(=O)C(C[C@H](C)N(C)C)(c1ccccc1)c1ccccc1 [d-methadone], which “Inhibition of NE reuptake” value is on record?
Answer: weak inhibitor of NE reuptake
